# Out of some 52,000 sequences screened, about 210 (0.4%) were called active.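 Rule for the calls: active = gene whose silencing raises cell survival under the drug, median off-target-corrected z-score across its silencing RNAs 2 or more; inactive = the rest.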 The list shows a part of the results.
# Assay: Resistance to Poly (ADP-Ribose) Polymerase inhibitor: Gene Identification via Genome-wide siRNA Screen
# Details: mouse BRCA2 R2336H ES cells, olaparib, CellTiter-Glo viability; stronger effect = higher value
# In short: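 Genome-wide siRNA screen (3 siRNAs/gene, 20 nM) in mouse ES cells carrying hypomorphic BRCA2 R2336H; olaparib 500 nM added 48 h post-transfection, CellTiter-Glo viability 72 h later. Normalized to plate-median negative control; MAD z-scores, gene median, seed-adjusted.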
row,Sequence,z-score
1,CGCAUUUGAAAAAGAGUGGTT against Ndufs5,inactive: 1.35
2,GGAUGUUCUGUUCUUGAAGTT against Pgk1,inactive: 0.266
3,CCUCCAAGAUCACUGAACATT against 2410018L13Rik,inactive: -2.35
4,GGCUUCUUCCUUGAGAGUCTT against Tgfa,inactive: -0.114
5,GCAGCCUUAUACUUCUCACTT against E330008O22Rik,inactive: -1.49
6,AGUGCUCAUUAACUGUCGCTT against Snrpd2,inactive: -2.74
7,CCUCAAGGGCUGAUGCAUGTT against Gpkow,inactive: -1.27
8,GGCUGAAGAGAAUCUUUUATT against Il9r,inactive: 1.54
9,CGGAUGUGAGAAAAGAGUUTT against Ndufc1,inactive: 1.34
10,GGUCAAGAGGAGGGUACCUTT against A430097D04Rik,inactive: -0.603
11,GGUCACUUCCUUAAUUUUATT against Disc1,inactive: 0.597
12,GGGACAAUCAACACAAAAUTT against Ythdf3,inactive: 1.76
13,GGAAGAUGCCAUUUAUUGGTT against Sgpl1,inactive: 0.24
14,CGGAAUCUGACUGGUAUCGTT against Banp,inactive: -2.47
15,CGGACUCGAUAACCAUCAGTT against Smurf1,inactive: -0.26
16,GGAUCUCUGUUUCUCAAAATT against Slc19a3,inactive: 0.771
17,GGUGCAGCACUUCAAAGUGTT against Grap,inactive: -0.586
18,GGCUGGUUGAAGGUUGUGATT against Epdd1,inactive: 0.104
19,GGGACUACCAUUUGUUAAUTT against Tktl1,inactive: 0.41
20,GGAAGAAGCCCAAGGACUUTT against Donson,inactive: -2.4
21,GCAACAAAUUCCUAGGCACTT against Pmp2,inactive: 0.278
22,CCAAAGUUAUCUUUUAUGGTT against D830013H23Rik,inactive: 0.806
23,GCCAUUCCGGCAGUAUUACTT against Pdcd7,inactive: 0.524
24,GGAGACUGUGGAUUUAAUUTT against Sult1a1,inactive: 0.69
25,CGUAAUUGAUAAAACGGGATT against E130012K09,inactive: 0.338
26,CGGCGUAUGAGGAUUGGUUTT against Atp8b1,inactive: 1.93
27,GAGCCAGUCCAUCAUGAUGTT against Pdgfrl,inactive: -0.845

row,Sequence,z-score
1,GGAUCCUGCAUCUUAUAGUTT against Tcstv3,inactive: 0.114
2,GGAACGAGAUGCAGCUAUCTT against Cry1,inactive: -1.01
3,GGCCCUUUGAGUCGUUCCUTT against 9130211I03Rik,inactive: -0.516
4,GCAGGUUUGAUAUAAAAUCTT against Uble1b,inactive: 2.01
5,GGGACAAAUGGAUCAAGAUTT against Ganab,inactive: -0.181
6,GGUGUGCAACCUGUUGCUCTT against Sn,inactive: 0.271
7,GGAAAAUCCAGAGGCUACGTT against Creg,inactive: -2.06
8,GGUGGCACAUCAGUGUUUGTT against 1700113O17Rik,inactive: -0.247
9,GGCUGAGAAUGACAGUUCCTT against Ars2,inactive: -1.81
10,GGUUUGGGAUGUUCGAGUUTT against Slc25a1,inactive: -0.836
11,CCUUCAUCUAGAAACCAAGTT against 2810446P07Rik,inactive: 0.942
12,GCGCAAAAGGACCUAUGAGTT against Rela,inactive: -1.57
13,GGAACCACACAUUUAAAAUTT against Ctsh,inactive: -0.0783
14,GGAUUAUGAGAUGAAAUCUTT against Serpinb9b,inactive: 0.871
15,GCUUCGAUACCUUCAAACCTT against Epb7.2,inactive: 0.431
16,GCUGACCAAAGUCACUCCCTT against Aqp1,inactive: -0.128
17,GGAAUGCAAACAGCACUUGTT against Rab33b,inactive: 0.106
18,GGGAGAUCCGAAGUGGAUCTT against Sult2a2,inactive: 1.28
19,GGGAACAAAAACAUAAAAGTT against Otub2,inactive: 0.356
20,GGCUGAGGUCACCAUCAUCTT against Lrrc16,inactive: -1.12
21,GGAAAGACCAUUCUGUAUUTT against Wbscr24,inactive: -0.897
22,GCUAUGACACGAGAAGGCATT against Mcpt7,inactive: -0.776
23,CGCGUCAUUAUCAAGUGCCTT against Dnpep,inactive: 0.138
24,GGAGUGAAAUUUACUGGGUTT against Hdgfrp3,inactive: 1.78
25,CCUGUAAACCAGAUAAGCCTT against Defb1,inactive: 0.287
26,GGAGGUCUUUUCAGAAUAATT against 4930455C21Rik,inactive: -1.92
27,GGGCACAAAGAUAUGAAUATT against Lgals3bp,inactive: 1.49

# Copied from the entries so far for reference:
row,Sequence,z-score
19,GGGAACAAAAACAUAAAAGTT against Otub2,inactive: 0.356
20,GGCUGAGGUCACCAUCAUCTT against Lrrc16,inactive: -1.12
21,GGAAAGACCAUUCUGUAUUTT against Wbscr24,inactive: -0.897
22,GCUAUGACACGAGAAGGCATT against Mcpt7,inactive: -0.776
23,CGCGUCAUUAUCAAGUGCCTT against Dnpep,inactive: 0.138

# (cont.)

row,Sequence,z-score
1,GGAAGGAUCUAAUCUUUUUTT against Vamp2,inactive: 0.376
2,GGGAGACUGCUUCUAGCUGTT against Ncdn,inactive: 0.478
3,GGAAGCUUCAGGAGUAUAUTT against Sdc2,inactive: -0.853
4,GUGUGACUUUUUGACUAUUTT against Klhl2,inactive: 1.54
5,GUGUUUACACCCAAAAUGCTT against Olfr906,inactive: 1.75
6,GGGUAUGGAUUCAGGUAGATT against Ppp3r2,inactive: 0.326
7,CGGCCUGACAUCAACCUUGTT against BC021381,inactive: -0.799
8,UUUUCACCGAACAAAGAACTT against AI132487,inactive: 0.0907
9,GGCUUUGAAAGUUACCGGGTT against Sipa1,inactive: 0.436
10,GCAGGAGUCACCAUACUACTT against 2010004J24Rik,inactive: -0.142
11,CCCUGAACAAUCUGCUACATT against E130303B06Rik,inactive: 0.467
12,GGGCCAGUACUGUAGCUGUTT against Golga3,inactive: 0.722
13,CGUGUCAGCUAUUCAUUAATT against Osbpl5,inactive: -0.0539
14,GGAAAACUGCGUUUGGAAATT against BC034753,inactive: 1.73
15,GGAGAUGACAAAUCUAGUGTT against DXImx49e,inactive: 1.47
16,CGACAAGACGAACAUCAAGTT against Nrn1,inactive: 0.903
17,GGGCUAUCUAUCAUAGUUUTT against Scp2,inactive: -1.27
18,CCCAUGAACCUUAUUUGAATT against D030070L09Rik,inactive: 0.716
19,GGACAACAUUGCUAAAUUUTT against Es22,inactive: -0.514
20,GCCACCCUACCAUAGCAAATT against 3110007P09Rik,inactive: 1.17
21,GACAGUGCACGAUCUGAUUTT against Pfn3,inactive: 0.0097
22,GGCAGUACUGUCCAGAUGATT against 2210006M16Rik,inactive: -3.26
23,CCUUUUGAUGCAUCCCGUCTT against Rya3,inactive: 0.681
24,GGAGUAGUAGCUGAAUUUGTT against Abcc3,inactive: 1.88
25,GAGGUUACUUCAAAGACAATT against 3110004H13Rik,inactive: -0.98
26,CCUCCUUUUUUCUCUGUCUTT against Ugt1a12,inactive: -1.12
27,GGCUAGAGAGGAUCUUGAGTT against Cdkn2a,inactive: 1.21

row,Sequence,z-score
1,GCAUUACAUAACAUGGCCATT against Sumo3,inactive: 0.0802
2,GGCCUGAUCAAGUUUCUGCTT against 1110007H17Rik,inactive: -0.191
3,GGUCAUCAACCAAUUCCAGTT against 2310003P10Rik,inactive: 0.0666
4,GGACAUUGAGAACAUUAUCTT against Caln1,inactive: 0.302
5,CGAACAACAGAGUAAAAUUTT against Ank2,inactive: 0.467
6,GGAGAUUCGGCAUUAAGACTT against 0610037H22Rik,inactive: 0.766
7,GGUGACAAAAAGUCAAAGATT against 4930429A22Rik,inactive: -0.547
8,GGAAUAUCCCAACAUCUGUTT against Upp1,inactive: -0.754
9,GGAGAGCGAAGAAGACUGUTT against Psen2,inactive: -0.814
10,GGCUUUGCACUCAGCGUACTT against Pps,inactive: 0.872
11,GGCUCUGUCAAGUUCAUCATT against Tgm2,inactive: 0.753
12,GGAAUCAAACGGACAAACATT against Lmod1,inactive: 0.766
13,GGAGGCUGUCUGUCUAAUATT against Trim39,inactive: 0.471
14,GGAGACAGAAACUUAACCUTT against Gns,inactive: 0.148
15,GGAGAAGGAGAGCUUCAUCTT against Mphosph6,inactive: -1.11
16,GGUGUUACAGAUGUACCGATT against AY078069,inactive: 0.639
17,UGACGGUUCUAUUGAUUACTT against AI316807,inactive: 1.54
18,CCCUGAAAAUUAUCGAGCGTT against Galntl4,inactive: -0.317
19,GGAUGCUGAAGUGAAGGACTT against Myt1,inactive: -1.01
20,GCCACUAUCUGGAUAAGGATT against Ftl1,inactive: -1.63
21,GGUGAUUCAACUCACUUGUTT against Olfr1353,inactive: -0.149
22,GGGCCAUUUCAUGUUAAUUTT against Nit2,inactive: -0.825
23,GGAUCCCUGUAAUAUGGCATT against Spag8,inactive: 0.403
24,AGGCGGUUUUUUGUCUAUGTT against Serpina1e,inactive: -0.9

# Reference: PubChem BioAssay AID1347423 (Functional Genomics Laboratory (NCATS/FGL), 2020)
